Results deposited as PubChem BioAssay AID1224831 (NIAID, 2016)

Purpose: 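Confirming genome-wide hits on LPS-triggered TNF-alpha induction with independent siRNA sequences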 (follow-up of hits)
Cells: human THP-1 B5 monocytic leukaemia cells carrying a TNF promoter luciferase reporter, made macrophage-like with PMA
Knock-down reagent: single siRNA against human genes, 50 nM
Duration: about 68 h of knock-down, then 4 h LPS
Treatment: LPS (Salmonella minnesota, TLR-grade) at 10 ng/ml for 4 h; PMA 5 ng/ml present during knock-down
Detection: 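Firefly to renilla luciferase ratio of a TNF promoter reporter after 4 h LPS, scaled to plate median, turned into robust z-score, averaged over replicates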
Reading the numbers: TNF reporter z-score: higher = stronger LPS-induced TNF reporter signal; z-score, median over gene's siRNAs: higher = stronger TNF reporter signal across the gene's siRNAs
Hit rule: 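Active when the replicate mean z-score is about -1 or lower, or about 1.5 or higher; lowered and raised TNF reporter signal both count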
Meaning of the calls: active = changed TNF reporter (either direction); inactive = little change
Here is a random part of about 3,500 reagents. 731 of all reagents (21%) were called active. 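Active means either lowered or raised reporter signal; the gene-median score did not drive the per-siRNA calls.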 A number with no mark means an inactive call.

Against LIN9 (lin-9 DREAM MuvB core complex component) [SID315488856] the deposit lists TNF reporter z-score, replicate mean 1.95 (active); z-score, median over gene's siRNAs 0.34.
For LIN9 (lin-9 DREAM MuvB core complex component) [SID315488857], the entry reads TNF reporter z-score, replicate mean 0.03; z-score, median over gene's siRNAs 0.34.
LIN9 (lin-9 DREAM MuvB core complex component) [SID315488858] gave TNF reporter z-score, replicate mean -0.02; z-score, median over gene's siRNAs 0.34.
Against LIN9 (lin-9 DREAM MuvB core complex component) [SID315488859] the deposit lists TNF reporter z-score, replicate mean 1.31; z-score, median over gene's siRNAs 0.34.
With knock-down of LIN9 (lin-9 DREAM MuvB core complex component) [SID315488860] the results were TNF reporter z-score, replicate mean 0.65; z-score, median over gene's siRNAs 0.34.
After knock-down of LIN9 (lin-9 DREAM MuvB core complex component) [SID315488861] the results were TNF reporter z-score, replicate mean 0; z-score, median over gene's siRNAs 0.34.
After knock-down of RCAN2 (regulator of calcineurin 2) [SID315483426], the screen gave TNF reporter z-score, replicate mean -0.12; z-score, median over gene's siRNAs 0.095.
With knock-down of RCAN2 (regulator of calcineurin 2) [SID315483427], the record shows TNF reporter z-score, replicate mean -0.29; z-score, median over gene's siRNAs 0.095.
Against RCAN2 (regulator of calcineurin 2) [SID315483428], the entry reads TNF reporter z-score, replicate mean 0.12; z-score, median over gene's siRNAs 0.095.
Silencing of RCAN2 (regulator of calcineurin 2) [SID315483429] came out at: TNF reporter z-score, replicate mean 0.07; z-score, median over gene's siRNAs 0.095.
For RCAN2 (regulator of calcineurin 2) [SID315483430] the deposit lists TNF reporter z-score, replicate mean 0.55; z-score, median over gene's siRNAs 0.095.
For RCAN2 (regulator of calcineurin 2) [SID315483431], the entry reads TNF reporter z-score, replicate mean 2.01 (active); z-score, median over gene's siRNAs 0.095.
FBXW7 (F-box and WD repeat domain containing 7) [SID315485829] showed TNF reporter z-score, replicate mean -0.4; z-score, median over gene's siRNAs -0.475.
Depletion of FBXW7 (F-box and WD repeat domain containing 7) [SID315485830] gave: TNF reporter z-score, replicate mean -0.79; z-score, median over gene's siRNAs -0.475.
Silencing of FBXW7 (F-box and WD repeat domain containing 7) [SID315485831] came out at: TNF reporter z-score, replicate mean -0.44; z-score, median over gene's siRNAs -0.475.
After knock-down of FBXW7 (F-box and WD repeat domain containing 7) [SID315485832], the screen gave TNF reporter z-score, replicate mean -0.86; z-score, median over gene's siRNAs -0.475.
Silencing of FBXW7 (F-box and WD repeat domain containing 7) [SID315485833] came out at: TNF reporter z-score, replicate mean -0.51; z-score, median over gene's siRNAs -0.475.
For FBXW7 (F-box and WD repeat domain containing 7) [SID315485834] the deposit lists TNF reporter z-score, replicate mean 1.18; z-score, median over gene's siRNAs -0.475.

Individual results from above:
Under “TNF reporter z-score, replicate mean”, RCAN2 (regulator of calcineurin 2) [SID315483428] is entered as 0.12
Entry of LIN9 (lin-9 DREAM MuvB core complex component) [SID315488860] in “z-score, median over gene's siRNAs”: 0.34
FBXW7 (F-box and WD repeat domain containing 7) [SID315485831], TNF reporter z-score, replicate mean = -0.44
Result for FBXW7 (F-box and WD repeat domain containing 7) [SID315485834] in “TNF reporter z-score, replicate mean”: 1.18
For “TNF reporter z-score, replicate mean”, FBXW7 (F-box and WD repeat domain containing 7) [SID315485832] reads -0.86
FBXW7 (F-box and WD repeat domain containing 7) [SID315485830], z-score, median over gene's siRNAs: -0.475

Further reagents follow.
Silencing of LITAF (lipopolysaccharide induced TNF factor) [SID315483312] gave: TNF reporter z-score, replicate mean 2.41 (active); z-score, median over gene's siRNAs 0.855.
For LITAF (lipopolysaccharide induced TNF factor) [SID315483313] the deposit lists TNF reporter z-score, replicate mean -0.01; z-score, median over gene's siRNAs 0.855.
LITAF (lipopolysaccharide induced TNF factor) [SID315483314] showed TNF reporter z-score, replicate mean 1.72 (active); z-score, median over gene's siRNAs 0.855.
Against LITAF (lipopolysaccharide induced TNF factor) [SID315483315] the deposit lists TNF reporter z-score, replicate mean 2.56 (active); z-score, median over gene's siRNAs 0.855.
Knock-down of LITAF (lipopolysaccharide induced TNF factor) [SID315483316] came out at: TNF reporter z-score, replicate mean -0.24; z-score, median over gene's siRNAs 0.855.
LITAF (lipopolysaccharide induced TNF factor) [SID315483317] gave TNF reporter z-score, replicate mean -0.81; z-score, median over gene's siRNAs 0.855.
HORMAD1 (HORMA domain containing 1) [SID315487149] gave TNF reporter z-score, replicate mean -0.59; z-score, median over gene's siRNAs 0.28.
Depletion of HORMAD1 (HORMA domain containing 1) [SID315487150] came out at: TNF reporter z-score, replicate mean 2.15 (active); z-score, median over gene's siRNAs 0.28.
After knock-down of HORMAD1 (HORMA domain containing 1) [SID315487151], the record shows TNF reporter z-score, replicate mean -1.21 (active); z-score, median over gene's siRNAs 0.28.
HORMAD1 (HORMA domain containing 1) [SID315487152] gave TNF reporter z-score, replicate mean 1.36; z-score, median over gene's siRNAs 0.28.
HORMAD1 (HORMA domain containing 1) [SID315487153] showed TNF reporter z-score, replicate mean 1.15; z-score, median over gene's siRNAs 0.28.
HORMAD1 (HORMA domain containing 1) [SID315487154] gave TNF reporter z-score, replicate mean -0.71; z-score, median over gene's siRNAs 0.28.
With knock-down of RPGRIP1 (RPGR interacting protein 1) [SID315486027], the screen gave TNF reporter z-score, replicate mean 1.53 (active); z-score, median over gene's siRNAs 0.47.
RPGRIP1 (RPGR interacting protein 1) [SID315486028] showed TNF reporter z-score, replicate mean 0.01; z-score, median over gene's siRNAs 0.47.
With knock-down of RPGRIP1 (RPGR interacting protein 1) [SID315486029] the results were TNF reporter z-score, replicate mean 0.35; z-score, median over gene's siRNAs 0.47.
RPGRIP1 (RPGR interacting protein 1) [SID315486030] gave TNF reporter z-score, replicate mean 2.71 (active); z-score, median over gene's siRNAs 0.47.
Against RPGRIP1 (RPGR interacting protein 1) [SID315486031] the deposit lists TNF reporter z-score, replicate mean 0.59; z-score, median over gene's siRNAs 0.47.
Depletion of RPGRIP1 (RPGR interacting protein 1) [SID315486032] gave: TNF reporter z-score, replicate mean -0.09; z-score, median over gene's siRNAs 0.47.
Knock-down of TCN1 (transcobalamin 1) [SID315482958] came out at: TNF reporter z-score, replicate mean 2.33 (active); z-score, median over gene's siRNAs 0.855.
Silencing of TCN1 (transcobalamin 1) [SID315482959] resulted in: TNF reporter z-score, replicate mean -0.12; z-score, median over gene's siRNAs 0.855.
Knock-down of TCN1 (transcobalamin 1) [SID315482960] gave: TNF reporter z-score, replicate mean -1.09 (active); z-score, median over gene's siRNAs 0.855.
Silencing of TCN1 (transcobalamin 1) [SID315482961] resulted in: TNF reporter z-score, replicate mean 3.98 (active); z-score, median over gene's siRNAs 0.855.
With knock-down of TCN1 (transcobalamin 1) [SID315482962] the results were TNF reporter z-score, replicate mean 0.31; z-score, median over gene's siRNAs 0.855.
TCN1 (transcobalamin 1) [SID315482963] gave TNF reporter z-score, replicate mean 1.4; z-score, median over gene's siRNAs 0.855.
